Measured values taken from US11096923B2, “Pharmaceutical composition containing polymyxin B/trimethoprim based therapeutics” (University of Rochester, priority 2016, dated 2021).
At least one structure is not confirmed: it was looked up by name or label, or the drawing left a doubt. Some results were stated once for a whole list of compounds, not compound by compound.

Tests used:
A. baumanii = conditions: Colquhoun et al., 2015, cited from earlier work; for A. baumanii MH: Mueller Hinton broth; for A. baumanii Serum: human serum; for A. baumanii Surfactant: lung surfactant
[1] = test system: A. baumanii established biofilm; conditions: Colquhoun et al., 2015; cited from earlier work
[2] = test system: planktonic S. aureus cells; test: Antimicrobial kill curves; type: cell-based, Staphylococcus aureus; conditions: 2× MIC; for reduction in CFU at hour 4: 4 hours post-treatment
Procedure: (§1) Overnight cultures of the indicated organism were used to inoculate (1:100 dilution) 100 ml of fresh media and grown to mid-exponential phase. […] Aliquots were taken at 1, 2, 3, 4, and 24 hours, serial diluted and plated for colony forming units.

MRSA keratitis isolates = MRSA keratitis isolates collected between 1993 and 2012; cited from earlier work
[3] = test system: planktonic P. aeruginosa cells; test: Antimicrobial kill curves; type: cell-based, Pseudomonas aeruginosa; conditions: 2× MIC
Procedure: as §1

## N[C@@H]1CN(c2c(F)cc3c(=O)c(C(=O)O)cn([C@@H]4C[C@@H]4F)c3c2Cl)CC12CC2 [Sitafloxacin, sitafloxacin]
A. baumanii
  A. baumanii MH: −
  A. baumanii Serum: +
  A. baumanii Surfactant: −
[1]
  A. baumanii AK Signal: +

## C[C@H]1COc2c(N3CCN(C)CC3)c(F)cc3c(=O)c(C(=O)O)cn1c23 [Levofloxacin, levofloxacin]
A. baumanii
  A. baumanii MH: −
  A. baumanii Serum: −
  A. baumanii Surfactant: +
[1]
  A. baumanii AK Signal: +

## NC[C@H]1O[C@H](O[C@H]2[C@H](O)[C@@H](O[C@H]3O[C@H](CO)[C@@H](O)[C@H](N)[C@H]3O)[C@H](N)C[C@@H]2N)[C@H](N)C[C@@H]1O [Tobramycin, tobramycin]
[2]
  reduction in CFU at hour 4: 3-4 log

## COc1c(N2C[C@@H]3CCCN[C@@H]3C2)c(F)cc2c(=O)c(C(=O)O)cn(C3CC3)c12 [Moxifloxacin, moxifloxacin]
MRSA keratitis isolates
  isolates displaying resistance: approximately 35.2%
[3]
  reduction in CFU at 24 hr: complete eradiation
[2]; all time points
  bactericidal activity compared with rifampicin + polymyxin B/trimethoprim: nearly identical

## CO[C@H]1/C=C/O[C@@]2(C)Oc3c(C)c(O)c4c(O)c(c(/C=N/N5CCN(C)CC5)c(O)c4c3C2=O)NC(=O)/C(C)=C\C=C\[C@H](C)[C@H](O)[C@@H](C)[C@@H](O)[C@@H](C)[C@H](OC(C)=O)[C@@H]1C [Rifampicin, rifampicin]
A. baumanii
  A. baumanii MH: −
  A. baumanii Serum: −
  A. baumanii Surfactant: −
[3]
  reduction in CFU at 24 hr: no viable cells
[2]
  reduction in CFU at hour 4: 3-4 log
[2]; 24 hours
  reduction in CFU at 24 hours: eradication of viable cells
[1]
  A. baumanii AK Signal: +
